Publication PMC2962900, “Kinetics of Methylation by EcoP1I DNA Methyltransferase” (Enzyme Research, 2010)
No constants are given. Whether binding was seen depends on the method and setting. Some entries that bind do so weakly or less than the wild type.

What was measured:
[1] = target: EcoP1I DNA methyltransferase (M.EcoP1I) (bacteriophage P1) (UniProt P08763); assay: SEC; gel filtration of M.EcoP1I loaded in the presence of 500 mM NaCl; data not shown; both purified
[2] = target: EcoP1I DNA methyltransferase (M.EcoP1I) (bacteriophage P1) (UniProt P08763); assay: SEC; rechromatography of the eluted dimer peak and of the high molecular weight peak on the same column; data not shown; both purified

B1: EcoP1I DNA methyltransferase (M.EcoP1I) (enzyme, bacteriophage P1, UniProt P08763 1-646, looked up)
chain: MKKETIFSEVETANSKQLAVLKANFPQCFDKNGAFIQEKLLEIIRASEVELSKESYSLNWLGKSYARLLANLPPKTLLAEDKTHNQQEENKNSQNLLIKGDNLEVLKHMVNAYAEKVNMIYIDPPYNTGKDGFVYNDDRKFTPEQLSELAGIELDEANRILEFTTKGSSSHSAWLTFIYPRLYIARELLKEDGVIFISIDDNEDKQLGLLCDEVFGQGNFVAKLPTIMNLKGNHDNFGFSDTHEYIYVYAKNKDVCSLGQFDIDESEVEKEWDEDEYGLFKRADTLKRTGQDASRKSRPKGWFPVFINSENKVYVTDDDKPLNEDDYVLYPVSPTGEELSWSWGKKKINDEFYNLIVIDIKDGKNIYKKQRPALGELPTKKPKSIWYKPEYSTSTATTELKNLLGAKLFEGPKPVPLITDLVKIGTKKDSLVLDFFAGSGTTAEAVAYLNEKDSGCRNFICIQKDEVINKTKNAYSLGYRSIFEITKKRIQEVFKKSTTTSDNAAKIGFKVIHTIDDFRAKVESELTLTNHTFFDDAVLTPEQYDALLTTWCVYDGSLLTTPIEDVDLSGYTAHFCNGRLYLIAPNFTSEALKALLQKLDSDEDFAPNKVVFYGCNFESAKQRELNEALKSYANKKSIELDLVVRN
notes: EcoP1I DNA methyltransferase, product of the mod gene of the EcoP1I Type III restriction-modification system of bacteriophage (prophage) P1; 1948 bp gene amplified with primers from the 5' and 3' ends of the open reading frame, cloned in the BamHI site of pET15b (construct pSN2); calculated mass ~75 kDa; No removal of the His6 tag is described. pET15b adds linker residues between the tag and the …
binding [1]: binds
binding [2]: binds
